# Source: PubChem BioAssay AID493014 (National Center for Advancing Translational Sciences (NCATS), 2011)
# The whole screen tested about 340,000 compounds, of which about 170 (0.05%) were called active. Inconclusive means that the source gave no clear call. Such entries were picked first, then a sample of the others. The call rests on the fitted dose curve; in most records, active means well fitted inhibition curve with a large enough effect in the signal ratio, with a control signal flat (not every such curve was filed as active); inconclusive means small, poorly fitted or top-dose-only effect, or effect the other way, or a change in a side signal; inactive means flat fitted curve, though single readings scatter; the % refers to the signal ratio. Potencies of inconclusive entries are doubtful fits and often do not repeat.
# Assay: qHTS Assay to Find Inhibitors of Chronic Active B-Cell Receptor Signaling;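 on activity change, negative = inhibition: plate controls were basal doxycycline-induced cells for no effect and cells given 10 µM MG132 for full effect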
# Details: ABC-DLBCL IkBa-CBG/CBR reporter, luminescence ratio (green luciferase fused to IkBa over red control in TMD8 lymphoma cells), 4 h; activity change, negative = inhibition: at 46.1 µM (top of the series)
# Method in brief: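 Cell line TMD8 (human ABC DLBCL), stably expressing tet-inducible CBG68-IkBa fusion and CBR; IMDM/0.5% FBS; cpd up to 46 uM; dox induction, 4 h, 37C/5% CO2; dual luminescence; green/red ratio; MG132 control.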
# Potency means the concentration at half of the fitted maximal effect.
SMILES,Potency,"activity change, negative = inhibition"
Cc1ccc([C@@H]2C[C@H]3CN(Cc4cccc(Cl)c4)C(=O)[C@]34CCCN24)o1,"inconclusive: 1.78 µM [falling, partial curve, poor fit]",–
CC(C)Oc1cccc(C(=O)Nc2ccc3oc(-c4ccccc4)nc3c2)c1,"inconclusive: 1.12 µM [rising, full curve, poor fit]",–
CSC1=NCCN1S(=O)(=O)c1ccc(F)cc1,–,inconclusive: -33%
Cc1cc(OCc2cc(C(=O)N(C)C3CCOC3)no2)cc(C)c1Cl (centres undefined),–,inactive
N#CC1=C(N)n2c(s/c(=C\c3cccs3)c2=O)=C(C#N)C1c1cccs1 (centres undefined),"inconclusive: 5.8 µM [rising, full curve, poor fit]",–
CC(=O)NC(CC(=O)NC1CCCc2ccccc21)c1ccccc1 (centres undefined),–,inactive
COc1cc(O)c2c(=O)c(-c3ccc(O[C@@H]4O[C@H](CO)[C@@H](O)[C@H](O)[C@H]4O)cc3)coc2c1,–,inactive
CCOc1ccc(S(=O)(=O)NCCC(=O)NCCc2ccc(OCC)c(OCC)c2)cc1,–,inconclusive: 15.7%
COc1cc(-c2nn3c(-c4cccnc4)nnc3s2)cc(OC)c1OC,–,inactive
COc1cc(/C=C2\N=C3CCCCCN3C2=O)ccc1O,"inconclusive: 29.1 µM [falling, single point]",–
Cc1ccccc1C(=O)N/N=C/c1ccc(OCC(=O)N2CCCCC2)cc1,–,inconclusive: -17.4%
CCOc1ccc(-c2nnn(CC(=O)Nc3cccc(OC)c3)n2)cc1OCC,"inconclusive: 29.1 µM [falling, single point]",–
COc1cc(NC(=O)c2ccccc2)c(OC)cc1Cl,–,inactive
N#CC1=C(N)Oc2n[nH]c(-c3ccccn3)c2C1c1c(F)cccc1Cl (centres undefined),–,inconclusive: -16.6%
Cc1nc2ccc(NC(=O)CCS(=O)(=O)c3ccc(Cl)cc3)cc2s1,–,inconclusive: 0.699%
Cc1nn(CCC(=O)O)c(C)c1C,–,inconclusive: -17.7%
N#C/C(=C\c1cc(Cl)ccc1O)C(=O)NC1CCCCC1,–,inactive
O=C(NCc1ccccc1Cl)c1cccc(NC(=O)c2ccccc2)c1,"inconclusive: 18.4 µM [falling, single point]",–
COc1cnc(-c2ccccn2)nc1Sc1ccccc1,"inconclusive: 20 µM [falling, single point]",–
COC(=O)C(CC(=O)O)NCc1ccco1 (centres undefined),–,inconclusive: -0.309%
CSc1cccc(NC(=O)/C=C/c2ccc(Cl)cc2)c1,"inconclusive: 17.8 µM [falling, partial curve]",–
COc1ccc(C(=O)CSc2nnc(-c3cccs3)n2-c2ccccc2)cc1,–,inconclusive: 5.72%
CCOC(=O)/C(C#N)=C/c1cc2ccc(C)cc2nc1Cl,"inconclusive: 29.1 µM [falling, single point]",–
Cc1ccc(NC(=O)c2ccco2)c([N+](=O)[O-])c1,"inconclusive: 11.2 µM [falling, partial curve]",–
O=C(NC(=S)Nc1cccnc1Cl)c1ccc(F)cc1,"inconclusive: 35.5 µM [rising, single point]",–
Cc1nonc1NC(=O)c1oc2ccc(F)cc2c1C,–,inconclusive: 5.19%
Fc1ccc(NC(=S)Nc2ccc(F)c(Cl)c2)cc1Cl,–,inconclusive: 13.3%

# Full records from above:
# COc1ccc(C(=O)CSc2nnc(-c3cccs3)n2-c2ccccc2)cc1 as listed: activity change, negative = inhibition: inconclusive: 5.72%
# CCOc1ccc(S(=O)(=O)NCCC(=O)NCCc2ccc(OCC)c(OCC)c2)cc1 as listed: activity change, negative = inhibition: inconclusive: 15.7%
# COc1cc(-c2nn3c(-c4cccnc4)nnc3s2)cc(OC)c1OC as listed: activity change, negative = inhibition: inactive

# Remaining list, next part:

SMILES,Potency,"activity change, negative = inhibition"
CCOc1cc(-c2nnc(SCC(=O)NCCCOC)nc2-c2ccc(OC)c(OCC)c2)ccc1OC,–,inconclusive: -12.9%
N#Cc1nc(-c2ccc(Cl)cc2)oc1NCCc1ccccn1,–,inconclusive: 16.4%
CCOC(=O)c1cc2c(=O)n3ccccc3nc2n(Cc2ccco2)c1=NC(=O)c1ccc(OC)cc1OC,–,inconclusive: 3.84%
Cc1cccc(C)c1OCC(=O)Nc1ccc(NC(=O)c2ccco2)cc1,–,inconclusive: 25.6%
O=C(Nc1ccncc1)c1ccc(Cl)c(Cl)c1,–,inconclusive: -6.05%
Cc1csc2c(SCC(=O)NNC(=O)C(Cl)Cl)ncnc12,–,inconclusive: -0.122%
O=C(Oc1ccc2c(c1)C(=O)c1ccccc1CO2)c1ccccc1,"inconclusive: 3.66 µM [falling, full curve, poor fit]",–
Fc1ccc2[nH]c3c(c2c1)CN(C(=S)NCc1ccccc1)CC3,–,inconclusive: 3.7%
C/C(=N\NC(=O)COc1ccc(C)cc1C(C)C)c1cc2ccccc2o1,"inconclusive: 20.6 µM [falling, single point]",–
CCOC(=O)CNc1nc(C(C)(C)C)nc2c1nnn2Cc1ccccc1Cl,–,inactive
Cc1c(/C=N/N=C2\CCC3C4CCc5cc(O)ccc5C4CCC23C)cnn1C (centres undefined),–,inconclusive: 12.1%
Cc1ccccc1NC(=O)Nc1ccccc1C(N)=O,"inconclusive: 6.31 µM [falling, partial curve]",–
N#C/C(=C/c1ccc(OCc2ccc(C(=O)O)cc2)cc1)C(=O)Nc1ccccc1,–,inconclusive: -0.184%
CCOC(=O)N1CCN(S(=O)(=O)c2ccc(F)c(C(=O)Nc3cc(C)cc(C)c3)c2)CC1,–,inconclusive: -18.9%
C=CC[C@@H](Cc1ccc(F)cc1)C(=O)OC[C@H]1CCCN1C(=O)[C@@H](CC=C)CC(=O)N[C@H](CO)Cc1ccccc1,–,inconclusive: -9.62%
COc1ccc(CN2CCN(C(=O)c3cc(C4CC4)nn3-c3ccccc3)CC2)cc1F,"inconclusive: 29.1 µM [falling, single point]",–
COc1ccc(-n2c(=S)[nH]c3ccccc32)cc1,–,inactive
COc1cccc(CNC(=O)CCc2ccc(OC)c(OC)c2)c1,–,inactive
O=C(N/N=C\c1ccc(O)c([N+](=O)[O-])c1)C1COc2ccccc2O1 (centres undefined),–,inconclusive: -5.55%
CCCCOC(=O)c1ccc(NC(=O)c2ccccc2OC)cc1,–,inconclusive: -19.2%
CC(C)(C)NC(=O)c1ccc2c(c1)N(CC(=O)N1CCCCC1)C(=O)C(C)(C)O2,–,inconclusive: -0.005%
Cn1c(CCN2CCCCCC2)nc2cc(NC(=O)Nc3ccccc3)ccc21,"inconclusive: 22.4 µM [falling, partial curve]",–
CCOC(=O)c1c(-c2ccccc2)oc2cc(Br)c(O)c(C=O)c12,–,inconclusive: 4.79%
O=C(Nc1ccc(S(=O)(=O)N2CCCC2)cc1)c1cccs1,"inconclusive: 12.6 µM [rising, partial curve, poor fit]",–
O=C(Nc1ccc2c(c1)OCCO2)C1c2ccccc2C(=O)N2CCc3ccccc3C12 (centres undefined),–,inconclusive: 3.73%
O=C(NNC(=S)Nc1ccc(F)cc1)c1ccccc1OC(F)F,"inconclusive: 23.1 µM [falling, partial curve]",–
CN(CCN1CCOCC1)Cc1nc(-c2cccs2)no1,"inconclusive: 1.26 µM [falling, full curve]",–

SMILES,Potency,"activity change, negative = inhibition"
CCOC(=O)c1cc(C)sc1NC(=O)C(c1ccccc1)c1ccccc1,–,inconclusive: 7.13%
CCc1ccc(NC(=O)CSc2nnc(-c3n[nH]c4ccccc34)n2-c2ccccc2)cc1,–,inconclusive: 1.39%
CCCNS(=O)(=O)c1cccc(C(=O)OCc2cc(=O)oc3cc(OC)ccc23)c1,active: 12.6 µM,–
COc1cc(C(C)=O)ccc1COc1ccc(C(=O)OCC(N)=O)cc1OC,–,inconclusive: 0.384%
COc1ccc(CNc2ccccc2)cc1Br,"inconclusive: 4.11 µM [rising, full curve, poor fit]",–
COc1cccc(C(=O)c2c[nH]c(C(=O)NCc3ccco3)c2)c1,–,inconclusive: -11.2%
COc1ccc(NC(=O)CSc2cn[nH]n2)c(OC)c1,"inconclusive: 15.8 µM [falling, single point]",–
O=C(c1ccc2c(c1)OCCO2)C1CCN(C(=O)Nc2ccccc2F)CC1,"inconclusive: 35.5 µM [falling, single point]",–
CCc1ccc(CCC(=O)Nc2ncc(Cc3ccccc3Cl)s2)o1,"inconclusive: 18.4 µM [falling, single point]",–
CCc1ccc2[nH]c(=O)c(-c3ccccc3)c(O)c2c1,–,inactive
CC12CCC(=O)N1C(C(=O)Nc1nccs1)CS2 (centres undefined),–,inconclusive: -8.15%
Cc1n[nH]c(C)c1N=Nc1cc(Cl)ccc1Cl,–,inconclusive: -1.14%
Cc1ccc(NC(=O)C2CCC(CNC(=O)[C@@H]3Cc4ccccc4CN3)CC2)c(C)c1 (some centres undefined),"inconclusive: 12.6 µM [falling, partial curve]",–
CCCC(=O)Nc1cc(-c2nc3ncccc3o2)ccc1Cl,–,inconclusive: -1.33%
O=[N+]([O-])/C(C(Cl)=C(Cl)Cl)=C(/Sc1ccccc1)N1CCCCC1,–,inconclusive: -1.86%
Cn1c(C(=O)N2CCN(c3cccc(C(F)(F)F)c3)CC2)cc2sccc21,–,inconclusive: -1.59%
C=CCc1ccccc1OCC(O)CNC(C)C (centres undefined),"inconclusive: 29.1 µM [falling, single point]",–
CN(Cc1ccccc1)C(=O)CSc1nnc(-c2ccco2)n1-c1ccccc1,–,inconclusive: 8.61%
O=C(Cc1ccc(Cl)cc1)OCC(=O)c1ccc[nH]1,–,inactive
CN(C)c1ccc2c(c1)Sc1cc(N(C)C)ccc1N2C(=O)c1ccccc1,–,inconclusive: 8.37%
O=C(Oc1ccc(Br)cc1C(=S)N1CCOCC1)c1ccc([N+](=O)[O-])cc1[N+](=O)[O-],–,inconclusive: -18.8%
O=C(NCc1ccncc1)c1nc(-c2ccc(C(F)(F)F)cc2)no1,–,inactive
CC1CN(C(=O)CCC(=O)NCc2ccc(Cl)cc2)c2ccccc2O1 (centres undefined),–,inactive
O=C(Nc1cccc([N+](=O)[O-])c1)C1C2CCCCC21 (centres undefined),–,inconclusive: 8.32%
CC(=O)NC1(C(F)(F)F)NC(=O)N(CCc2ccccc2)C1=O (centres undefined),–,inactive
